# “Also recorded” adds a separate entry of the source. For some of these results: For at least one compound, name, drawing or mass did not settle the structure. Some of these results come from one statement about several compounds together. Some ranges recur; such a range may be that of the whole group of compounds.
# What was measured:
# [1] = tested on: relapsed or refractory PTCL; details: range over the three approved therapies; cited from earlier work
# [2] = tested on: animal models; details: variety of animal models; cited from earlier work
# [3] = molecular target: FTase (Homo sapiens, UniProt P49356); details: in vitro; cited from earlier work
# [4] = molecular target: geranylgeranyltransferase I (Homo sapiens, UniProt P53609); details: cited from earlier work
# [5] = tested on: angioimmunoblastic T-cell lymphoma (AITL); assay: Phase 2 clinical study of tipifarnib in PTCL: objective response by KIR mutation status, AITL patients; assay type: in vivo, human
# Description: (§1) This example describes an ongoing Phase 2 clinical study of tipifarnib with the primary objective being to assess the antitumor activity in terms of Overall Response Rate (ORR) of tipifarnib in approximately 18-30 eligible subjects eligible subjects with Peripheral T-Cell Lymphoma (PTCL) (ClinicalTRials.gov identifier: NCT02464228).
# (§2) Subjects receive tipifarnib administered at a starting dose of 300 mg, orally with food, twice a day (bid) on Days 1-21 in 28 day cycles (i.e. 3 weeks on/1 week off). Stepwise 100 mg dose reductions to control treatment-related, treatment-emergent toxicities were also allowed. Subjects who received tipifarnib bid on days 1-7 and days 15-21 in 28 day cycles during the conduct of earlier versions of this protocol were permitted to remain on that dose regimen at the discretion of the investigator. Alternatively, the subject was permitted to transition to receive a dose of 300 mg, orally with food, bid on days 1-21 of 28 day treatment cycles beginning on Day 1 of their next cycle. In the absence of unmanageable toxicities, subjects may continue to receive tipifarnib treatment for up to 12 months in the absence of disease progression and unmanageable toxicity. Treatment was permitted to continue beyond 12 months upon agreement of the Investigator and Sponsor. […]
# [6] = tested on: relapsed or refractory Peripheral T-Cell Lymphoma (PTCL); assay: Phase 2 clinical study of tipifarnib in PTCL (NCT02464228): objective response by KIR mutation status, PTCL-NOS and AITL patients together; assay type: in vivo, human; details: subjects with mutant KIR2DL and/or KIR3DL tumors compared with wild type
# Description: as §1, §2
smiles,measurement,setting,value
O=C(/C=C/c1cccc(S(=O)(=O)Nc2ccccc2)c1)NO [belinostat],duration of response,[1],8.2-9.4 months
same,"objective response rate (overall response rate, ORR)",[1],25-27%
C#CCC(Cc1cnc2nc(N)nc(N)c2n1)c1ccc(C(=O)N[C@@H](CCC(=O)O)C(=O)O)cc1 (stereo partly shown) [pralatrexate],duration of response,[1],8.2-9.4 months
same,"objective response rate (overall response rate, ORR)",[1],25-27%
"Cn1cncc1[C@@](N)(c1ccc(Cl)cc1)c1ccc2c(c1)c(-c1cccc(Cl)c1)cc(=O)n2C [tipifarnib, (B)-6-[amino(4-chlorophenyl)(1-methyl-1H-imidazol-5-yl)methyl]-4-(3-chlorophenyl)-1-methyl-2(1H)-quinolinone]",oral activity in animal models,[2],orally active
same,inhibition of FTase / farnesylation,[3],extremely potent and highly selective inhibitor of farnesylation; also recorded: potent inhibitor of FTase in vitro
same,inhibition of geranylgeranyltransferase I,[4],not an inhibitor
same,"Overall Response Rate (CR + PR), responders/N",[5]; KIR3DL2 C336R/Q386E mutant,6/8
same,"Overall Response Rate (CR + PR), responders/N",[5]; KIR3DL2 wild type,2/7
same,"responsiveness to treatment, mutant versus wild type tumors",[6],more responsive
